Results are given in words; binding and its absence hold for the method and conditions named. In cells and extracts the contact can be indirect. Some results given as binding are weak or reduced against the parent protein; the word gives no strength.
Molecular target: β-catenin (human (endogenous in SW480)) (UniProt P35222)
Assay: co-IP; co-immunoprecipitation in SW480 cells; details in the supplementary materials and methods

By UniProt entry, the sequences of proteins in these tests, tags left out. Where a name states a change or a piece, a line headed by the entry shows the natural chain unless it says otherwise. Chains listed by the source or under a name are the forms on record and can include a tag or linker.
UniProt P35222: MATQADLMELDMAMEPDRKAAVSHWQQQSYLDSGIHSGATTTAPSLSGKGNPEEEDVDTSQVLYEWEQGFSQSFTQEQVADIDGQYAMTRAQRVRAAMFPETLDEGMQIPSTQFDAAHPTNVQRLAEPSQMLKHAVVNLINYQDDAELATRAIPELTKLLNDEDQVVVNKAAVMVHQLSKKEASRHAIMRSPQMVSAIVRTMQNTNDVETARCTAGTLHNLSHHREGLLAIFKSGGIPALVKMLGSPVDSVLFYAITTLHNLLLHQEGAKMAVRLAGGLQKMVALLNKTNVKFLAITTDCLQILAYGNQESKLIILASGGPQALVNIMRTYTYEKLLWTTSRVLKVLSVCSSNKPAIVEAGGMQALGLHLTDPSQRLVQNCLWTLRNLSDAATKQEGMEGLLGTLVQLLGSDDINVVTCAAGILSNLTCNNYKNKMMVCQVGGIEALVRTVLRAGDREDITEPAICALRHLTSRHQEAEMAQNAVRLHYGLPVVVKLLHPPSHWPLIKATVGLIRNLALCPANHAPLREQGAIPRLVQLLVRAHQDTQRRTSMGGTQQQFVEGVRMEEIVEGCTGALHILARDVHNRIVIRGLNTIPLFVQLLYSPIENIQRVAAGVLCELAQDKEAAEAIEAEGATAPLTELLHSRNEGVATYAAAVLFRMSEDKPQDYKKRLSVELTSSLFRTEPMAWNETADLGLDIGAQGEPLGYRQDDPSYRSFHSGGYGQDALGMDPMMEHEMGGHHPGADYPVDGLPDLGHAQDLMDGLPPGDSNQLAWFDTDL
LIM domain kinase (LIMK)2 (P53671-3, form named): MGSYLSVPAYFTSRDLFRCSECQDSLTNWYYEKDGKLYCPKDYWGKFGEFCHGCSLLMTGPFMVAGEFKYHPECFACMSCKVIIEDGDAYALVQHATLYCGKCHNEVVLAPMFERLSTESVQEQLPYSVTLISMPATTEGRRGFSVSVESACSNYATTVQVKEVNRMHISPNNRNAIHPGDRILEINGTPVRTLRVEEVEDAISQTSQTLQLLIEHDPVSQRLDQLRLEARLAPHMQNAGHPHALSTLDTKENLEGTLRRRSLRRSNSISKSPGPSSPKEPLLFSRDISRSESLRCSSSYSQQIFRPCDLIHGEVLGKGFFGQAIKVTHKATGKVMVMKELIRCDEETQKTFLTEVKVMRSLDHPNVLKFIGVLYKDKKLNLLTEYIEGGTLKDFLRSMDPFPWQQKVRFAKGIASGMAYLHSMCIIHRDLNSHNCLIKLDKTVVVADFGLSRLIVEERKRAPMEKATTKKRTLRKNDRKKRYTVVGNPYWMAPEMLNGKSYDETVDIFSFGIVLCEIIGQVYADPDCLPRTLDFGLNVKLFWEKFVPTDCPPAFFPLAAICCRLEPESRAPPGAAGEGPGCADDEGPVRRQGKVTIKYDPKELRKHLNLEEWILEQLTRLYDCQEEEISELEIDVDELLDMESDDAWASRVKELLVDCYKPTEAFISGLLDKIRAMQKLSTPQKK

- binding: binds
Substance: LIM domain kinase (LIMK)2 (from UniProt P53671-3 1-686)

From PMC6030168
